The values below come from the supplement of paper PMC12819154, “High-throughput peptide-centric local stability assay extends protein–ligand identification to membrane proteins, tissues and bacteria” (Nature Structural & Molecular Biology, 2025).

By UniProt entry, the sequences of proteins in these tests, tags left out. Where a name states a change or a piece, a line headed by the entry shows the natural chain unless it says otherwise.
UniProt Q9Y613: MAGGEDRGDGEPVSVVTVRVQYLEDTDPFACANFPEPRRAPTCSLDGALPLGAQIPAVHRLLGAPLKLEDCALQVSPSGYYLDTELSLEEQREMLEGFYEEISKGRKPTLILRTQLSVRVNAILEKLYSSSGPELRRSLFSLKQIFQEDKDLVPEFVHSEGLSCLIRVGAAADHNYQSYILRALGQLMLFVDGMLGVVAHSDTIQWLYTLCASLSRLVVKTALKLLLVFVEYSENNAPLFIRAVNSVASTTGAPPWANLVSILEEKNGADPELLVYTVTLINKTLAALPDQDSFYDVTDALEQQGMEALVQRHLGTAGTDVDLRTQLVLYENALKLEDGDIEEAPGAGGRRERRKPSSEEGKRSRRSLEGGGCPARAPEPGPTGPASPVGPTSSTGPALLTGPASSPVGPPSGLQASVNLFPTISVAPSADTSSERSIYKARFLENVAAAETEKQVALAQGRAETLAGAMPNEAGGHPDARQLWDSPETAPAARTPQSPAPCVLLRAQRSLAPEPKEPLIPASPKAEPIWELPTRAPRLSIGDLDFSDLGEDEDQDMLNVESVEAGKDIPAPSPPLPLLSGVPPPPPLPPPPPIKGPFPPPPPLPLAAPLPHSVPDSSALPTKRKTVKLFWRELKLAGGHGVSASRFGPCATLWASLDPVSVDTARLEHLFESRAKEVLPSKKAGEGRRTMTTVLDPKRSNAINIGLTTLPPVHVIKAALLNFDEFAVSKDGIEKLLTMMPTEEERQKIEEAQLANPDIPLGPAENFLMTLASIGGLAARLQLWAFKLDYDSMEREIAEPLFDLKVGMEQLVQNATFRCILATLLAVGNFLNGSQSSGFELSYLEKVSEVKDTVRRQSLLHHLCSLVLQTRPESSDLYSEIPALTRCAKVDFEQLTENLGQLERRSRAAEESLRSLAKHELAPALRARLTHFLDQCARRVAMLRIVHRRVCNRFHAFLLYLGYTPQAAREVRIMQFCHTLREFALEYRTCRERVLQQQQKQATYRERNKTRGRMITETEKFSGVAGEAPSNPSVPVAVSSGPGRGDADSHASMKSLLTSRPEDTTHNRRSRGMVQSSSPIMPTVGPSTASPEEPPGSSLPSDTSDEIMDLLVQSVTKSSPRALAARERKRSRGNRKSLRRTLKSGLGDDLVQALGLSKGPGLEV
UniProt Q9Y4B6: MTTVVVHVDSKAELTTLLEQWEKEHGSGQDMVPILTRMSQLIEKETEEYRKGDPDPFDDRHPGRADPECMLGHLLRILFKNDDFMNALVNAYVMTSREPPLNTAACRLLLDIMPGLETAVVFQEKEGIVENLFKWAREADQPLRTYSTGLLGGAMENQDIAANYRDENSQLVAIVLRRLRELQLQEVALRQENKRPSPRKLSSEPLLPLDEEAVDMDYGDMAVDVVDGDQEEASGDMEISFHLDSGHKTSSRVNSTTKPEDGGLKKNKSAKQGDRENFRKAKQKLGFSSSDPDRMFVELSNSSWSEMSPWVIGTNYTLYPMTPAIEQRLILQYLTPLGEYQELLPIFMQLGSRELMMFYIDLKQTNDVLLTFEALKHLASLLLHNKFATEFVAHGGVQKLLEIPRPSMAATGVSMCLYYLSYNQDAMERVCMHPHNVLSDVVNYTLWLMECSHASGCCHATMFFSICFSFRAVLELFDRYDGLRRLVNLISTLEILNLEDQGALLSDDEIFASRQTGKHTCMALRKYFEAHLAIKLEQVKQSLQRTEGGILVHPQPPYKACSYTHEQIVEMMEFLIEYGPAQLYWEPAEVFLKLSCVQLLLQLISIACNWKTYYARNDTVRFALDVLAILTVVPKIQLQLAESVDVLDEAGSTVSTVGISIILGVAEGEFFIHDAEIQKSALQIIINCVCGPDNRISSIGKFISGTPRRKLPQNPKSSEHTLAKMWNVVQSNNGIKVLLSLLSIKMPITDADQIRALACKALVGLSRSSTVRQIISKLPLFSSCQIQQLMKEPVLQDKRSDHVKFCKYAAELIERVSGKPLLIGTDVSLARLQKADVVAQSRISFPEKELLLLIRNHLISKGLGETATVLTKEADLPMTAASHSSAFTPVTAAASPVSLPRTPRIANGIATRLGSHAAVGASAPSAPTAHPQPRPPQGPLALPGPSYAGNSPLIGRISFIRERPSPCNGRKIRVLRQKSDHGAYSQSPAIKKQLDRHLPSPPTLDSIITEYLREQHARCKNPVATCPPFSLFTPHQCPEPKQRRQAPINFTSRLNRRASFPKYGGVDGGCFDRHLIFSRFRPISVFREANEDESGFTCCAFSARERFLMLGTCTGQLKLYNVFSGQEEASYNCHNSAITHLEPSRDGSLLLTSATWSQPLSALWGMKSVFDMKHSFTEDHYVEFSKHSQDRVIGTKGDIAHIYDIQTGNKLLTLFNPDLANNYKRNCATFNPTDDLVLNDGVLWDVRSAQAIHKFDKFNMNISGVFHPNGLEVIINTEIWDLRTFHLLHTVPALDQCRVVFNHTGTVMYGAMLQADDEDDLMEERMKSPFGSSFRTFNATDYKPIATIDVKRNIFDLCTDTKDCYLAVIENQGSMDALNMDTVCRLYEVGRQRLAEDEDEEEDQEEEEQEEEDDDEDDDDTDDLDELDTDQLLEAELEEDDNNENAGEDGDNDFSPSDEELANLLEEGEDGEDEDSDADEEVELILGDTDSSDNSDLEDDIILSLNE
UniProt Q9Y6K9, whole entry: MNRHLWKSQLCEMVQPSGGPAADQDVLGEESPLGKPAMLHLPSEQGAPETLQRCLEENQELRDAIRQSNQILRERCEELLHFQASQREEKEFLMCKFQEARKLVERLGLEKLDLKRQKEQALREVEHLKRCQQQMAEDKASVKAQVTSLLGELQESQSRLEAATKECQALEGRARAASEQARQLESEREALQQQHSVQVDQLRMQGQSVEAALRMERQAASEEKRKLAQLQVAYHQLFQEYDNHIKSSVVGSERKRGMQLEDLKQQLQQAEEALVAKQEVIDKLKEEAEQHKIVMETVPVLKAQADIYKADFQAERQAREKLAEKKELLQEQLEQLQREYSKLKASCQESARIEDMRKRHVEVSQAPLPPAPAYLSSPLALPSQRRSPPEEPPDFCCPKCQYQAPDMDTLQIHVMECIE
UniProt Q9Y530: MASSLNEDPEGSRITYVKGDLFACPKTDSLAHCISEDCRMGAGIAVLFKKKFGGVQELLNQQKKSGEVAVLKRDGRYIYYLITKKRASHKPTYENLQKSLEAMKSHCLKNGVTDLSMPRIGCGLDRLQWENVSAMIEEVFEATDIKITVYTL
UniProt Q9Y478: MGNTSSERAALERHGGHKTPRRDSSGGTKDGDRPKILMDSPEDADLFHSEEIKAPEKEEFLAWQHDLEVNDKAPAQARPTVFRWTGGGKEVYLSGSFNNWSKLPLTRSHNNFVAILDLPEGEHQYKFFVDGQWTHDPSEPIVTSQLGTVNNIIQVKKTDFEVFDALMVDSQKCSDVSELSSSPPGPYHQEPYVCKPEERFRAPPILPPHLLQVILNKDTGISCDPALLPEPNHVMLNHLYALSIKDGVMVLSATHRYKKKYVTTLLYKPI
UniProt Q9Y4X0: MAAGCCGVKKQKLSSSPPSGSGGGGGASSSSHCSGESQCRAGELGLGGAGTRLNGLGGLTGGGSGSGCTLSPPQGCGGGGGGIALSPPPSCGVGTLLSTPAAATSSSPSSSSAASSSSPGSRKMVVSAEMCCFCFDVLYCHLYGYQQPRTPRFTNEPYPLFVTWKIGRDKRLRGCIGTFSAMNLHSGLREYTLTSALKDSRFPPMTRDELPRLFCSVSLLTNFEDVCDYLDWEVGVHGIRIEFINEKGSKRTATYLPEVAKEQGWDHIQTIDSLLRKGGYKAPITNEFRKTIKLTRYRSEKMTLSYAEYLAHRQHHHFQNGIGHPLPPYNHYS
UniProt Q9Y646: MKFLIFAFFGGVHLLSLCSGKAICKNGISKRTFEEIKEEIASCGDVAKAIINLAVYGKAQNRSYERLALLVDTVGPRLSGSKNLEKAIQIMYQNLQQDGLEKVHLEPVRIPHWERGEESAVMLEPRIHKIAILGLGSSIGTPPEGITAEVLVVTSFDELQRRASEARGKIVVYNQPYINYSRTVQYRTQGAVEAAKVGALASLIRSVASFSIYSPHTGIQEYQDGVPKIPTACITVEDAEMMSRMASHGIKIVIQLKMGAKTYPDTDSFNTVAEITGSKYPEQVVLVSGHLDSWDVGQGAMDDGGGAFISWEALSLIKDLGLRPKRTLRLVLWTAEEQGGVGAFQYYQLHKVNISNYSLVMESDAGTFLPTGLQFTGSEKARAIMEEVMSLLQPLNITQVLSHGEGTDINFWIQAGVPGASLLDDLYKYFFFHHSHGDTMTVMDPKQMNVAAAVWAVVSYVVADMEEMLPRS
UniProt Q9Y4P1: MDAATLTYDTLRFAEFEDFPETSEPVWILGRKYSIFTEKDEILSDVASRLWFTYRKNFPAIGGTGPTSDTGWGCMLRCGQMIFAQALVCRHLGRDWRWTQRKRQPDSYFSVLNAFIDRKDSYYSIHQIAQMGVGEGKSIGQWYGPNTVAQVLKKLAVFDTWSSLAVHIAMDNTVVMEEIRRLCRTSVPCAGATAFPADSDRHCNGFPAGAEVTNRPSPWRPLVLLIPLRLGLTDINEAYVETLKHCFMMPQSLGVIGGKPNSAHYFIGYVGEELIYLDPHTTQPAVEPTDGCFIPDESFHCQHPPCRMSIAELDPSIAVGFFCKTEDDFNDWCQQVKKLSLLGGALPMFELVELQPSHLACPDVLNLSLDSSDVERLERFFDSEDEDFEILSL
UniProt Q9Y5Z7: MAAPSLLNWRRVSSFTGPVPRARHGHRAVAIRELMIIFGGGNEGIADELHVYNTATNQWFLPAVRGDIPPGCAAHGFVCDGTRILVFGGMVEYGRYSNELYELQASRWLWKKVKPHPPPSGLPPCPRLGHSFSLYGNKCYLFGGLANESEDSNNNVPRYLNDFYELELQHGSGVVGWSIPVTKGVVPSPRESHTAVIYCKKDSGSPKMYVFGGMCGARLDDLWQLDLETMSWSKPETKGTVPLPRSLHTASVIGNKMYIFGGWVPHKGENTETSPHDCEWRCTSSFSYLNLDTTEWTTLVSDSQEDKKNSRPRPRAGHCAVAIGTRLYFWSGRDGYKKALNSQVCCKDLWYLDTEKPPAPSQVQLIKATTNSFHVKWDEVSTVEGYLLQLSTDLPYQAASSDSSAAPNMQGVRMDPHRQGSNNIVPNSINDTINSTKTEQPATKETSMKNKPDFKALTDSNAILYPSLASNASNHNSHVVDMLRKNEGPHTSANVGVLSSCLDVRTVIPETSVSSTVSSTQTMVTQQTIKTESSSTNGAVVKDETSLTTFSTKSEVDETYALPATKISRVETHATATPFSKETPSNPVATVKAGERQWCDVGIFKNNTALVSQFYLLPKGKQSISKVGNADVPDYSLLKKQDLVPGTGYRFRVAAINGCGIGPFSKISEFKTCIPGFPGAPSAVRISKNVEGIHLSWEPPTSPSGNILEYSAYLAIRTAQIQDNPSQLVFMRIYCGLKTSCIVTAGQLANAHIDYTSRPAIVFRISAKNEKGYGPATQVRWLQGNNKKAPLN
UniProt Q9Y605: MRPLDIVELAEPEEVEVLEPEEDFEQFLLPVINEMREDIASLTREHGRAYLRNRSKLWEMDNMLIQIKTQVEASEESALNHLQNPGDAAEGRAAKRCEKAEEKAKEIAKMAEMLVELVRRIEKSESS
UniProt Q9Y5V0: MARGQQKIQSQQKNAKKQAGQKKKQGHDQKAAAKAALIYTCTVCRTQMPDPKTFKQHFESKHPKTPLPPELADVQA
UniProt Q9Y664: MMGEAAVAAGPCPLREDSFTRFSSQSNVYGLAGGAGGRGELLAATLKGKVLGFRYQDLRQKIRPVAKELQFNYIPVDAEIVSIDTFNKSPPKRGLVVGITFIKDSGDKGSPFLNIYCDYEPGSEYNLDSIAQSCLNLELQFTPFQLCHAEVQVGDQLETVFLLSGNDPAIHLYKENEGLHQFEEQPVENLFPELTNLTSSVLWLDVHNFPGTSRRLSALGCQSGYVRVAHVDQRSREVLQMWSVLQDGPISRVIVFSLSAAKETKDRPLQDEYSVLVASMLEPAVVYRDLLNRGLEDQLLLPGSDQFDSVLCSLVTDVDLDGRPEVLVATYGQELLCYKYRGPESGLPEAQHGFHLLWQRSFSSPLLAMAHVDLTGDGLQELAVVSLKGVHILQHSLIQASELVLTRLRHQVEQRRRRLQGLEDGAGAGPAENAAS
UniProt Q9Y4H4: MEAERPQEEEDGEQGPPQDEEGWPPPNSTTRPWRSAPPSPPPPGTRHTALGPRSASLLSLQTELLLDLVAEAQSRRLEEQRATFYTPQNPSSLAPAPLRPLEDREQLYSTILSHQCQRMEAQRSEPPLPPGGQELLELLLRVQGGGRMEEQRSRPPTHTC
UniProt Q9Y5R8, whole entry: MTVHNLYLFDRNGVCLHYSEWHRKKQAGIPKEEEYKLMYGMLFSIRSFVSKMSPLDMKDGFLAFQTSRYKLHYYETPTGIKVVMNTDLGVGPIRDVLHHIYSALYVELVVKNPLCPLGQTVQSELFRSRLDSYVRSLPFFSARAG
UniProt Q9Y587: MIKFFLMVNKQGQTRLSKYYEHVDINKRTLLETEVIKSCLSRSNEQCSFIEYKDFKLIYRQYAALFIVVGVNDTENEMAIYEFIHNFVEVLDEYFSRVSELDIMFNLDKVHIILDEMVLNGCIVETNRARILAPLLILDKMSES

Some of the results follow. Small differences around the control level are noise.

Compound in the test: CN[C@@H]1C[C@H]2O[C@@](C)([C@@H]1OC)n1c3ccccc3c3c4c(c5c6ccccc6n2c5c31)C(=O)NC4 [staurosporine]
Description: log2 fold change of tryptic peptide abundance, ligand vs vehicle (limited proteolysis) (log2 ratio); higher = more trypsin-susceptible (destabilized). Conditions: ligand concentration: 20 uM; sample: K562 cleared lysate; digestion: 4 min, 22 C (HT-PELSA RT4min, Orbitrap Astral).
For “FHOD1 (peptide sequence: VDFEQLTENLGQLERR, peptide start residue: 890) (UniProt Q9Y613)”, the log2 fold change is -0.257.

As for “TEX264 (peptide sequence: WLWEPTAPEK, peptide start residue: 301) (UniProt Q9Y6I9)”, the log2 fold change was determined as 0.443.

In the case of “FLVCR1 (peptide sequence: ESVELQNGPK, peptide start residue: 34) (UniProt Q9Y5Y0)”, the log2 fold change is 0.277.

Consider “RRP15 (peptide sequence: GMDGSTNETASSR, peptide start residue: 216) (UniProt Q9Y3B9)”, for which the log2 fold change was -0.101.

As to “UniProt Q9Y4B6 (peptide sequence: RKLPQNPK, peptide start residue: 709)”, the log2 fold change is 0.412.

On to “WDR45 (peptide sequence: IYNVEPLMEK, peptide start residue: 31) (UniProt Q9Y484)”, for which the log2 fold change turned out to be 0.0625.

In the case of “KIF3A (peptide sequence: LDMEEEERNK, peptide start residue: 437) (UniProt Q9Y496)”, the log2 fold change was -0.678.

Regarding “CHMP3 (peptide sequence: AHMNSVLMGMK, peptide start residue: 82) (UniProt Q9Y3E7)”, the log2 fold change was determined as 0.196.

For “IKBKG (peptide sequence: GMQLEDLK, peptide start residue: 257) (UniProt Q9Y6K9)”, the log2 fold change was determined as 0.151.

Take “NCOR2 (peptide sequence: YPPHSLSYPVQIAR, peptide start residue: 19) (UniProt Q9Y618)”: the log2 fold change turned out to be 0.371.

On to “UniProt Q9Y530 (peptide sequence: NGVTDLSMPR, peptide start residue: 110)”, for which the log2 fold change was -0.189.

As to “PRKAB1 (peptide sequence: KTDFEVFDALMVDSQK, peptide start residue: 157) (UniProt Q9Y478)”, the log2 fold change is 0.206.

Regarding “AMMECR1 (peptide sequence: AAGCCGVKK, peptide start residue: 2) (UniProt Q9Y4X0)”, the log2 fold change was -0.102.

Turning to “CPQ (peptide sequence: AIINLAVYGK, peptide start residue: 49) (UniProt Q9Y646)”, the log2 fold change came out at 0.115.

Turning to “ARFGEF1 (peptide sequence: MYMDESR, peptide start residue: 1737) (UniProt Q9Y6D6)”, the log2 fold change is 0.309.

As to “UniProt Q9Y473 (peptide sequence: TLNTESNCEYKDPGK, peptide start residue: 166)”, the log2 fold change was -0.162.

“STRAP (peptide sequence: IYDLNKPEAEPK, peptide start residue: 126) (UniProt Q9Y3F4)”: the log2 fold change was -0.147.

Consider “TBL2 (peptide sequence: AMVEEMQGHLK, peptide start residue: 407) (UniProt Q9Y4P3)”, for which the log2 fold change amounted to 0.246.

“NUBP2 (peptide sequence: ELTFCRK, peptide start residue: 173) (UniProt Q9Y5Y2)”: the log2 fold change was -0.188.

Take “COMMD10 (peptide sequence: VLVEFSHK, peptide start residue: 175) (UniProt Q9Y6G5)”: the log2 fold change is -0.291.

Consider “GMPPB (peptide sequence: FVEKPQVFVSNK, peptide start residue: 159) (UniProt Q9Y5P6)”, for which the log2 fold change came out at 0.53.

For “MRPS16 (peptide sequence: EVLLASQK, peptide start residue: 117) (UniProt Q9Y3D3)”, the log2 fold change stood at 0.0945.

Consider “CAPN7 (peptide sequence: VQALHSAVQSK, peptide start residue: 64) (UniProt Q9Y6W3)”, for which the log2 fold change amounted to 0.469.

In the case of “SNX10 (peptide sequence: RFPEEDEEGK, peptide start residue: 155) (UniProt Q9Y5X0)”, the log2 fold change was -0.00947.

As for “ATG4B (peptide sequence: SIGQWYGPNTVAQVLKK, peptide start residue: 138) (UniProt Q9Y4P1)”, the log2 fold change came out at 0.217.

Regarding “HCFC2 (peptide sequence: ETPSNPVATVK, peptide start residue: 582) (UniProt Q9Y5Z7)”, the log2 fold change stood at 0.146.

With “UniProt Q9Y3Y2 (peptide sequence: ASMQQQQQLASAR, peptide start residue: 39)”, the log2 fold change was -0.329.

Consider “MRFAP1 (peptide sequence: MAEMLVELVR, peptide start residue: 110) (UniProt Q9Y605)”, for which the log2 fold change was found to be 0.0867.

Take “UniProt Q9Y5V0 (peptide sequence: AALIYTCTVCR, peptide start residue: 35)”: the log2 fold change was -0.0172.

“CCDC9 (peptide sequence: SVEKENVAVESEK, peptide start residue: 60) (UniProt Q9Y3X0)”: the log2 fold change is -0.242.

In the case of “KPTN (peptide sequence: GELLAATLK, peptide start residue: 39) (UniProt Q9Y664)”, the log2 fold change amounted to 0.028.

With “GPSM3 (peptide sequence: SRPPTHTC, peptide start residue: 153) (UniProt Q9Y4H4)”, the log2 fold change was 0.224.

For the target “UniProt Q9Y6H3 (peptide sequence: RGPAAGEQLQQQHVSCQVFPER, peptide start residue: 10)”, the log2 fold change is -0.352.

In the case of “RNF114 (peptide sequence: YQNYIMEGVK, peptide start residue: 113) (UniProt Q9Y508)”, the log2 fold change stood at 0.144.

Take “BZW2 (peptide sequence: FLDSTGSRLDYRR, peptide start residue: 51) (UniProt Q9Y6E2)”: the log2 fold change was found to be 0.787.

Consider “TRAPPC1 (peptide sequence: SLPFFSAR, peptide start residue: 136) (UniProt Q9Y5R8)”, for which the log2 fold change stood at 0.402.

On to “MTF2 (peptide sequence: DSTGAGNSLVHK, peptide start residue: 3) (UniProt Q9Y483)”, for which the log2 fold change was 0.477.

For the target “AP4S1 (peptide sequence: ILAPLLILDK, peptide start residue: 131) (UniProt Q9Y587)”, the log2 fold change was -0.158.

Consider “MRPS23 (peptide sequence: LGETDEEKLFVETGK, peptide start residue: 109) (UniProt Q9Y3D9)”, for which the log2 fold change was -0.168.
